Reference: PubChem BioAssay AID504834 (National Center for Advancing Translational Sciences (NCATS), 2011)
Out of some 320,000 compounds screened, about 22,000 (6.9%) were called active. The inconclusive results got no clear call from the source; some entries with a clear call stand among them for comparison. The call rests on the fitted dose curve; in most records, active means well fitted inhibition curve with a large enough effect; inconclusive means small, poorly fitted or top-dose-only effect, or another doubt; inactive means no such curve, though single readings can be large or run the other way. A potency beside an inconclusive call is a rough fit, not a confirmed value.

experiment: Primary qHTS for delayed death inhibitors of the malarial parasite plastid, 96 hour incubation; settings: P. falciparum luciferase reporter growth; series mostly up to 28.7 µM
How it was run: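 Luminescence readout: decreased luciferase signal marks inhibited growth of reporter-expressing P. falciparum in infected red cells (2% hematocrit, 0.05% parasitemia final), exposed to compound two generations (96 h, 37 C, 5% CO2).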
Potency means the concentration at half of the fitted maximal effect.

SMILES | Potency
COc1ccc(CCNc2cc(C)nc3c(-c4ccccc4)c(C)nn23)cc1OC | inconclusive: 13.1 µM [inhibitor, partial curve, poor fit]
C=CCN1C(=NC(=O)COc2ccccc2)SC2CS(=O)(=O)CC21 (configuration not stated) | inconclusive: 18.5 µM [inhibitor, single point]
CCC(Oc1ccccc1)C(=O)Nc1ccccc1C(=O)N1CCCCC1 (configuration not stated) | inconclusive: 13.1 µM [inhibitor, single point]
Cc1cc(C(=O)CSc2n[nH]c(N)n2)c(C)n1-c1ccc2c(c1)OCO2 | active: 11.7 µM
COc1nc(OC)nc(N2CCC(NC(=O)C(Cc3cccc(OC)c3OC)NC(C)=O)CC2)n1 (configuration not stated) | inconclusive: 0.657 µM [inhibitor, full curve, poor fit]
O=S(=O)(c1cnc[nH]1)N1CCN(c2ccc(Cl)cc2)CC1 | inconclusive: 8.28 µM [inhibitor, partial curve, poor fit]
COc1cccc(C(=O)N2N=C(c3ccccn3)CC2(O)C(F)(F)F)c1 (configuration not stated) | inconclusive: 9.28 µM [inhibitor, single point]
CC1=CC(=C(C#N)c2nc3ccccc3s2)C=C(C)N1CC1CCCO1 (configuration not stated) | active: 2.94 µM
CC1CCC(C(=O)NC(C(=O)N2CCC3(CC2)OCCO3)C(C)C)CC1 (configuration not stated) | inconclusive: 11.7 µM [inhibitor, single point]
CCOC(=O)N1CCC(NC(=O)c2cc(C(=O)Nc3cccc(C(F)(F)F)c3)ccc2CO)CC1 | active: 2.33 µM
COC(=O)CC1Oc2ccc(C)cc2NC1=O (configuration not stated) | active: 9.28 µM
O=[N+]([O-])c1cc([N+](=O)[O-])c2oc(-c3ccccc3)c(Br)c2c1O | inactive
O=[N+]([O-])c1ccc(S(=O)(=O)N2CCC3(CC2)OCCN3S(=O)(=O)c2cccs2)cc1 | inconclusive: 9.28 µM [inhibitor, partial curve, poor fit]
Cc1csc(NS(=O)(=O)c2ccc(Cl)cc2)n1 | inconclusive: 13.1 µM [inhibitor, single point]
C=C(C)CSc1nnc([C@@H]2CCCN2)o1 | inactive
COc1cc2c(cc1OC)C1=NC(=O)CN1C(SCc1ccc(C)cc1)=N2 | inactive
O=C(Nc1ccccc1C(F)(F)F)c1c(F)cccc1Cl | inconclusive: 1.65 µM [inhibitor, full curve, poor fit]
N#Cc1cccc(NC(=O)Cn2cnc(S(=O)(=O)N3CCCC3)c2)c1 | inconclusive: 11.7 µM [inhibitor, single point]
N#CCCn1cc(C(=O)Nc2ccc(C(=O)O)cc2)c(-c2cc3ccccc3o2)n1 | inconclusive: 11.7 µM [inhibitor, single point]
CCOc1ccccc1NC(=O)CSc1nnc(C2CC2)n1CC | inconclusive: 9.28 µM [inhibitor, partial curve, poor fit]
Cc1ccc(S(=O)(=O)N2CCN(C(=O)C3CSC4(C)CCC(=O)N34)CC2)cc1C (configuration not stated) | inactive

SMILES | Potency
CCOc1ccc(CC(=O)Nc2ccc(S(=O)(=O)Nc3cc(C)on3)cc2)cc1OCC | inconclusive: 13.1 µM [inhibitor, partial curve, poor fit]
CCOC(=O)c1c(C)[nH]c(C(=O)OC(C)C(=O)Nc2ccccc2OC)c1C (configuration not stated) | inconclusive: 18.5 µM [inhibitor, single point]
Cc1ccc(C)c(Cn2c3ccccc3c3cnn(CC(=O)NCCCN4CCOCC4)c(=O)c32)c1 | inconclusive: 18.5 µM [inhibitor, single point]
CCOc1cc(C(=O)Nc2ccc(S(=O)(=O)NC3=NCCCCC3)cc2)cc(Br)c1OC | inconclusive: 14.7 µM [inhibitor, single point]
CCOC(=O)Nc1cc(C(=O)OC)cc(C(=O)OC)c1 | inconclusive: 11.7 µM [inhibitor, partial curve, poor fit]
CCOC(=O)C(CC)Sc1nc2c(cnn2-c2ccccc2)c(=O)[nH]1 (configuration not stated) | inconclusive: 18.5 µM [inhibitor, single point]
Cc1[nH]c2ccccc2c1C(=O)/C=C/c1ccccc1Cl | inconclusive: 1.65 µM [inhibitor, full curve, poor fit]
CCOc1ccccc1NC(=O)CSc1nnc(NC(=O)c2ccco2)s1 | inactive
CCn1c(CC(=O)Nc2cccc(OC)c2)nnc1SCC(=O)N1CCN(c2ccccc2)CC1 | inactive
O=C(CN1C(=O)c2ccccc2S1(=O)=O)Nc1ccc(S(=O)(=O)N2CCCCC2)cc1 | inconclusive: 2.33 µM [inhibitor, partial curve, poor fit]
Cc1c(C(=O)O)[nH]c2c1C(=O)CC(c1ccc(C(C)(C)C)cc1)C2 (configuration not stated) | inconclusive: 9.28 µM [inhibitor, partial curve]
COc1cccc(CNC(=O)CS(=O)(=O)Cc2nc(-c3ccc(C)cc3)oc2C)c1OC | inconclusive: 11.7 µM [inhibitor, single point]
Cc1nnsc1S(=O)c1ccc(Cl)c(Cl)c1 (configuration not stated) | active: 5.22 µM
C[C@@H](C(=O)Nc1ccc2ccccc2c1)[C@@H]1C[C@@]1(C)[C@@H](NC(=O)OCc1ccccc1)c1ccccc1 | inactive
O=C(NCc1ccccc1F)C1CCCN1C(=O)NC1CCCCC1 (configuration not stated) | inactive
CCOC(=O)CSc1nc2sc3c(c2c(=O)n1-c1ccc(C)cc1)CCN(C)C3 | active: 2.33 µM
CC(C)(C)OC(=O)N[C@@H](C(=O)OC(C)(C)C)c1ccc2ccccc2c1 | inactive
Nc1ccc2nc(CCCCCCc3nc4ccc(N)cc4[nH]3)[nH]c2c1 | inactive
CC1(OC(=O)CCc2ccccc2)C(=O)C=C2C=C(c3ccc(C#N)cc3)N(C3CCCCC3)C=C2C1=O (configuration not stated) | inconclusive: 18.5 µM [inhibitor, single point]
Cc1ccc(-n2nc(-c3ccc(N)cc3)cc2N)cc1 | inconclusive: 0.104 µM [inhibitor, partial curve, poor fit]
COc1ccccc1N1CCN(c2ccc3cc(S(=O)(=O)N4CCCCC4)ccc3n2)CC1 | inconclusive: 18.5 µM [inhibitor, single point]

Looked up by structure from the entries so far (3):
SMILES | Potency
Cc1ccc(-n2nc(-c3ccc(N)cc3)cc2N)cc1 | inconclusive: 0.104 µM [inhibitor, partial curve, poor fit]
COc1ccccc1N1CCN(c2ccc3cc(S(=O)(=O)N4CCCCC4)ccc3n2)CC1 | inconclusive: 18.5 µM [inhibitor, single point]
CCOc1ccc(CC(=O)Nc2ccc(S(=O)(=O)Nc3cc(C)on3)cc2)cc1OCC | inconclusive: 13.1 µM [inhibitor, partial curve, poor fit]
